The source of these data is US20230399298A1 (priority 2020, published 2023).

For the series the following is noted: donepezil composition, SD rats, intramuscular, 4 mg/kg of donepezil.

Regarding `COc1cc2c(cc1OC)C(=O)C(CC1CCN(Cc3ccccc3)CC1)C2` (stereo not shown) [D (Donepezil), 2-((1-benzylpiperidin-4-yl)methyl)-5,6-dimethoxy-2,3-hydro-1H-inden-1-one], the “release of the drug was terminated” value is on record as at most 3 days.
